Patent US6562848B1, “Bis-amino acid sulfonamides as HIV protease inhibitors” (Bristol-Myers Squibb Company, priority 2001, dated 2003)
In brackets after ≈: the same amount, converted by molar mass.

Tested on: HIV-1 (RF)
Test: HIV RNA assay: microplate based compound evaluation in HIV-1 infected MT-2 cells
Format: cell-based
Details: Human immunodeficiency virus 1, MT2, 72 h; HIV-1 (RF) infected MT-2 cells, 3 days of culture; value to which the virus inoculum was standardized; read-out: IC90 value (concentration of compound required to reduce the HIV RNA level by 90%)
Method: Plasmid pDAB 72 containing both gag and pol sequences of BH10 (bp 113-1816) cloned into PTZ 19R was prepared according to Erickson-Viitanen et al. AIDS Research and Human Retroviruses 1989, 5, 577. The plasmid was linearized with Bam HI prior to the generation of in vitro RNA transcripts using the Riboprobe Gemini system II kit (Promega) with T7 RNA polymerase. Synthesized RNA was purified by treatment with RNase free DNAse (Promega), phenol-chloroform extraction, and ethanol precipitation. RNA transcripts were dissolved in water, and stored at −70° C. The concentration of RNA was determined from the A260.
Biotinylated capture probes were purified by HPLC after synthesis on an Applied Biosystems (Foster City, Calif.) DNA synthesizer by addition of biotin to the 5′ terminal end of the oligonucleotide, using the biotin-phosphoramidite reagent of Cocuzza, Tet. Lett. 1989, 30, 6287. The gag biotinylated capture probe was complementary to nucleotides 889-912 of HXB2 and the pol biotinylated capture probe was complementary to nucleotides 2374-2395 of HXB2. […]
MT-2 and MT-4 cells were maintained in RPMI 1640 supplemented with 5% fetal calf serum (FCS) for MT-2 cells or 10% FCS for MT-4 cells, 2 mM L-glutamine and 50 μg/mL gentamycin, all from Gibco. […] Infectious titers of HIV-1 (RF) stocks were 1-3×10^7 PFU (plaque forming units)/mL as measured by plaque assay on MT-2 cells (see below). […]

IC90: 0.2 µg/mL (≈ 0.947 µM)
Compound: Nc1ccn([C@H]2CC[C@@H](CO)O2)c(=O)n1 [ddC, dideoxycytidine]
